No constants are given. Whether binding was seen depends on the method and setting. Binding seen in cells or lysates may run through a third protein. Here binding means that the protein was enriched with, or labelled near, the bait; the list need not be complete.

Chains of the proteins cited; added tags and fusions are not shown.
UniProt P05412: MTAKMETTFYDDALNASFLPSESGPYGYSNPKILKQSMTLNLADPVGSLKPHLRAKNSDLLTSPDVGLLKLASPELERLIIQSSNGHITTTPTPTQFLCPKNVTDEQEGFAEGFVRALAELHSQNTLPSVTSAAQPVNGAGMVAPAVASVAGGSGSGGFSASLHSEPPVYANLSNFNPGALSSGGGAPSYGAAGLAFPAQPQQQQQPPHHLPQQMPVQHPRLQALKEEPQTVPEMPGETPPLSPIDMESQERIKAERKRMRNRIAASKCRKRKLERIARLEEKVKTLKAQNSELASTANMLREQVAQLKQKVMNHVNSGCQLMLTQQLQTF
UniProt Q13887: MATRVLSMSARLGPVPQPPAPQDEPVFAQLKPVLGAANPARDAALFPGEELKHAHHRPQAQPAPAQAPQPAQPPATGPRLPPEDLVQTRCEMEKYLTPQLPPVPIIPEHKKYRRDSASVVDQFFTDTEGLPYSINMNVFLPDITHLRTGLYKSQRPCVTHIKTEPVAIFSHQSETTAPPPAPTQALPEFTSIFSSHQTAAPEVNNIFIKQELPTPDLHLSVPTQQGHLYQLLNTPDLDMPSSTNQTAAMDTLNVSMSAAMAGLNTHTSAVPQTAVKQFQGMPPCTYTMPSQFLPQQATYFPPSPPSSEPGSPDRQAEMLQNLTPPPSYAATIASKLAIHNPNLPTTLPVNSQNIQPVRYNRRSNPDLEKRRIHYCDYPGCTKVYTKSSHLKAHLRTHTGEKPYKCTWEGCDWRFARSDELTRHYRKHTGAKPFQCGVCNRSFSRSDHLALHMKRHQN

Test [1] addresses 3xFlag-WT-YAP1 (isoform with 504aa) (human) (UniProt P46937). Description: affinity purification with mass spectrometry; Flag-IP-MS: lysate of SRC-activated normal epithelial cells stably expressing 3xFlag-WT-YAP1 or 3xFlag-mut-YAP1; anti-Flag resin 2 h at 4 °C, elution with 3xFlag peptide, then streptavidin resin, elution with 4 mM biotin; LC/ESI MS/MS.
In test [2] the target is 3xFlag-mut-YAP1 (3YF mutant) (human) (UniProt P46937). The test is described as above.

Consider “C-JUN, endogenous (from UniProt P05412 1-331)”, for which the binding result in test [1] and in test [2] was “binds” throughout. Regarding “Kruppel-like factor 5 (KLF5), endogenous (from UniProt Q13887 1-457)”, the binding result in test [1] was “binds”.
